Reference: PubChem BioAssay AID1259405 (NCATS, 2018)
Here is an unselected part of about 50,000 reagents tested. Of all reagents, about 4,000 (8%) got an active call. 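Mouse siRNA library applied to hamster cells; one well for each siRNA.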 Entries without a mark were called inactive. The numbers tell different reagents against one gene apart. Not all columns of the deposit are shown.

Aim: 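Mouse-designed siRNAs used to find CHO productivity engineering targets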 (primary screen)
System: Chinese hamster CHO-K1 ovary cells with stable secreted eGFP expression
Knock-down reagent: single siRNA against mouse genes, 0.8 pmol siRNA per well (2 µl of 400 nM stock)
Timing: 3 days
Read-out: 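Per-well intracellular GFP measured by laser scanning cytometry, plus viability from ATP luminescence, each relative to plate median of non-targeting control wells, in %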
Scale: GFP, % of control: higher = more GFP per well, higher productivity
Hit rule: 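Called active when intracellular GFP, relative to negative control, is at or above 120%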

GFP, % of control, by gene and reagent
Or6c207: #1 68.5; #2 67.7; #3 62.5
Ms4a5: #1 77.5; #2 109; #3 48.2
Acyp1: #1 92.7; #2 48.2; #3 81.1
Tnfaip8: #1 95.1; #2 112; #3 133 (active)
Adh5: #1 70.8; #2 94.9; #3 54.7
Clca2: #1 141 (active); #2 57.9; #3 96.8
Mb21d2: #1 34.8; #2 72.7; #3 74.8
Irgm2: #1 88.2; #2 81; #3 129 (active)
Lrrc47: #1 53.6; #2 67; #3 58.1
Csn1s1: #1 92.5; #2 51.9; #3 60.1
Pcsk9: #1 129 (active); #2 97.2; #3 56.8
Fndc10: #1 45.1; #2 72.7; #3 75.7
